Laboratory results as given in US20190070268A1, “ABUSE-DETERRENT PHARMACEUTICAL COMPOSITIONS” (priority 2016, published 2019).

What was measured:
laccase = assay: Thin layer chromatography of enzymatic conversion; assay type: biochemical; conditions: samples at 2, 10, 30, 60, 120 minutes
[1] = system: laccase from Myceliophthora thermophila (MtL); conditions: after 30 minutes; 2 mg/ml morphine in distilled water, 78.3 U/ml MtL

CN1CC[C@]23c4c5ccc(O)c4O[C@H]2[C@@H](O)C=C[C@H]3[C@H]1C5 [morphine]
time at which the reference dot disappears on TLC (all converted) (laccase): 30 min | morphine converted (GC-MS) [1]: approx. 60%
